Data as given in PubChem BioAssay AID1259425 (University of Nebraska Medical Center, 2018)
In all, the deposit lists about 14,000 reagents; this is an unselected part. Further read-outs or replicates are left out here. Not given: the time to read-out.

Assay: 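Find knockdowns that reproduce the gene expression pattern seen when KSR1 is lost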 (primary screen)
Cells: HCT116 human colon cancer cells
Reagent: siRNA pool against human genes, 50 nM siRNA
Measured: 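After 50 nM siRNA pool, branched-DNA assay measures six marker transcripts per well, minus blank, normalised to the geometric mean of two housekeeping transcripts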
Direction: BNIP3L mRNA: higher = more BNIP3L transcript after knockdown; NDRG1 mRNA: higher = more NDRG1 transcript after knockdown

{"gene": "KRI1", "PubChem SID": "SID364002614", "BNIP3L mRNA, set 1": 0.0914, "NDRG1 mRNA, set 1": 0.162}
{"gene": "TEAD4", "PubChem SID": "SID363994342", "BNIP3L mRNA, set 1": 0.0986, "NDRG1 mRNA, set 1": 0.187}
{"gene": "HP1BP3", "PubChem SID": "SID364000009", "BNIP3L mRNA, set 1": 0.0795, "NDRG1 mRNA, set 1": 0.248}
{"gene": "GPA33", "PubChem SID": "SID363996691", "BNIP3L mRNA, set 1": 0.152, "NDRG1 mRNA, set 1": 0.129}
{"gene": "ESPN", "PubChem SID": "SID364003655", "BNIP3L mRNA, set 1": 0.321, "NDRG1 mRNA, set 1": 0.684}
{"gene": "LOXL4", "PubChem SID": "SID364003830", "BNIP3L mRNA, set 1": 0.14, "NDRG1 mRNA, set 1": 0.112}
{"gene": "A2M", "PubChem SID": "SID363991353", "BNIP3L mRNA, set 1": 0.09, "NDRG1 mRNA, set 1": 0.163}
{"gene": "PTPRA", "PubChem SID": "SID363993992", "BNIP3L mRNA, set 1": 0.04, "NDRG1 mRNA, set 1": 0.584}
{"gene": "H1-0", "PubChem SID": "SID363996234", "BNIP3L mRNA, set 1": 0.0917, "NDRG1 mRNA, set 1": 0.0467}
{"gene": "CADM1", "PubChem SID": "SID363998762", "BNIP3L mRNA, set 1": 0.0828, "NDRG1 mRNA, set 1": 0.153}
{"gene": "CHIT1", "PubChem SID": "SID363994564", "BNIP3L mRNA, set 1": 0.346, "NDRG1 mRNA, set 1": 0.365}
{"gene": "SLC25A32", "PubChem SID": "SID364003432", "BNIP3L mRNA, set 1": 0.0686, "NDRG1 mRNA, set 1": 0.173}
{"gene": "ATF4", "PubChem SID": "SID363992898", "BNIP3L mRNA, set 1": 0.0481, "NDRG1 mRNA, set 1": 0.261}
{"gene": "NKRF", "PubChem SID": "SID364000349", "BNIP3L mRNA, set 1": 0.0949, "NDRG1 mRNA, set 1": 0.292}
{"gene": "UCHL1", "PubChem SID": "SID363995185", "BNIP3L mRNA, set 1": 0.088, "NDRG1 mRNA, set 1": 0.257}
{"gene": "ALDH1A2", "PubChem SID": "SID363994947", "BNIP3L mRNA, set 1": 0.115, "NDRG1 mRNA, set 1": 0.274}
{"gene": "ABL2", "PubChem SID": "SID363996085", "BNIP3L mRNA, set 1": 0.122, "NDRG1 mRNA, set 1": 0.127}
{"gene": "RC3H2", "PubChem SID": "SID364001211", "BNIP3L mRNA, set 1": 0.0765, "NDRG1 mRNA, set 1": 0.166}
{"gene": "SQLE", "PubChem SID": "SID363994270", "BNIP3L mRNA, set 1": 0.0783, "NDRG1 mRNA, set 1": 0.111}
{"gene": "FBXO24", "PubChem SID": "SID364004385", "BNIP3L mRNA, set 1": 0.117, "NDRG1 mRNA, set 1": 0.83}
{"gene": "JAK2", "PubChem SID": "SID363995913", "BNIP3L mRNA, set 1": 0.0892, "NDRG1 mRNA, set 1": 0.124}
{"gene": "SUN1", "PubChem SID": "SID364003282", "BNIP3L mRNA, set 1": 0.107, "NDRG1 mRNA, set 1": 0.266}
{"gene": "CLDN3", "PubChem SID": "SID363992589", "BNIP3L mRNA, set 1": 0.0796, "NDRG1 mRNA, set 1": 0.773}
{"gene": "CSTPP1", "PubChem SID": "SID364002761", "BNIP3L mRNA, set 1": 0.0846, "NDRG1 mRNA, set 1": 0.136}
{"gene": "CHLSN", "PubChem SID": "SID364003934", "BNIP3L mRNA, set 1": 0.236, "NDRG1 mRNA, set 1": 0.282}
{"gene": "RTP4", "PubChem SID": "SID364002373", "BNIP3L mRNA, set 1": 0.106, "NDRG1 mRNA, set 1": 0.101}
{"gene": "SAMD4B", "PubChem SID": "SID364005354", "BNIP3L mRNA, set 1": 0.0924, "NDRG1 mRNA, set 1": 0.0865}
{"gene": "STK31", "PubChem SID": "SID364003601", "BNIP3L mRNA, set 1": 0.0667, "NDRG1 mRNA, set 1": 0.446}
{"gene": "FSTL3", "PubChem SID": "SID363996734", "BNIP3L mRNA, set 1": 0.222, "NDRG1 mRNA, set 1": 0.948}
{"gene": "FLVCR2", "PubChem SID": "SID364000531", "BNIP3L mRNA, set 1": 0.17, "NDRG1 mRNA, set 1": 1.45}
{"gene": "RNF216", "PubChem SID": "SID364005009", "BNIP3L mRNA, set 1": 0.067, "NDRG1 mRNA, set 1": 0.0541}
{"gene": "ATP10A", "PubChem SID": "SID364002820", "BNIP3L mRNA, set 1": 0.12, "NDRG1 mRNA, set 1": 0.173}
{"gene": "ZNF140", "PubChem SID": "SID363994541", "BNIP3L mRNA, set 1": 0.165, "NDRG1 mRNA, set 1": 0.507}
{"gene": "HOOK1", "PubChem SID": "SID363999694", "BNIP3L mRNA, set 1": 0.0909, "NDRG1 mRNA, set 1": 0.107}
{"gene": "KCNE2", "PubChem SID": "SID364004808", "BNIP3L mRNA, set 1": 0.085, "NDRG1 mRNA, set 1": 0.315}
{"gene": "RPL36", "PubChem SID": "SID363999476", "BNIP3L mRNA, set 1": 0.174, "NDRG1 mRNA, set 1": 0.375}

Reprinted from the listing for reference:
{"gene": "CHLSN", "PubChem SID": "SID364003934", "BNIP3L mRNA, set 1": 0.236, "NDRG1 mRNA, set 1": 0.282}
{"gene": "RTP4", "PubChem SID": "SID364002373", "BNIP3L mRNA, set 1": 0.106, "NDRG1 mRNA, set 1": 0.101}
{"gene": "SAMD4B", "PubChem SID": "SID364005354", "BNIP3L mRNA, set 1": 0.0924, "NDRG1 mRNA, set 1": 0.0865}
{"gene": "STK31", "PubChem SID": "SID364003601", "BNIP3L mRNA, set 1": 0.0667, "NDRG1 mRNA, set 1": 0.446}
